These are yes or no findings as the source states them, for the method shown. In cells and extracts the contact can be indirect. Some entries that bind do so weakly or less than the wild type. For some assays here: Tags and fused reporters may be left off the sequences shown.
Key:
[1] = biological target: HA-tagged FOXO1 (Forkhead box O1) (human) (UniProt Q12778); assay: co-IP; Flag-tagged NEK2 and HA-tagged FOXO1 co-transfected into HEK293T cells; lysate incubated with antibodies and protein A/G beads at 4 °C overnight, beads washed five times, Western blot; normal mouse or rabbit IgG as negative control
[2] = biological target: endogenous FOXO1 (human (endogenous in EESC)) (UniProt Q12778); assay: co-IP; endogenous proteins in EESC cell lysate; lysate incubated with antibodies and protein A/G beads at 4 °C overnight, beads washed five times, Western blot; normal mouse or rabbit IgG as negative control

The chains behind the UniProt entries cited, without tags or fusion partners.
UniProt Q12778: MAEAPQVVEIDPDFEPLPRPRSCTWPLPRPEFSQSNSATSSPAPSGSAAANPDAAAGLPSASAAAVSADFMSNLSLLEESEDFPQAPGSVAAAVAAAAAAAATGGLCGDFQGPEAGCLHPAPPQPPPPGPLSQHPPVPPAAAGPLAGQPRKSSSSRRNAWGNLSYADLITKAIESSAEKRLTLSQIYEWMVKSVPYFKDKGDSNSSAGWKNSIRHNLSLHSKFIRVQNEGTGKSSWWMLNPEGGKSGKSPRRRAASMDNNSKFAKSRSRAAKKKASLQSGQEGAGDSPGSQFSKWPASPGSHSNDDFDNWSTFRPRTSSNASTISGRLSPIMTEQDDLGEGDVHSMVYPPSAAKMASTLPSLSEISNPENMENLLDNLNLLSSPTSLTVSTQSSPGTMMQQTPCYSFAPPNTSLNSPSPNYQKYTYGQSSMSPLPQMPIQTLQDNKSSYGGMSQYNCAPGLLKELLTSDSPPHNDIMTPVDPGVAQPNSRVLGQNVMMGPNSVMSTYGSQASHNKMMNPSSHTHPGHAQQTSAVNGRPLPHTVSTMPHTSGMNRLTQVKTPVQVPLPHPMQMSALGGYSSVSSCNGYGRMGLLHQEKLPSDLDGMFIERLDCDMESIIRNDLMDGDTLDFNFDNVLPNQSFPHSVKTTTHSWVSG

binding [1] | binding [2] | Binder
binds |  | Flag-tagged NEK2 (Never in Mitosis (NIMA) Related Kinase 2) (enzyme, UniProt P51955 1-445) MPSRAEDYEVLYTIGTGSYGRCQKIRRKSDGKILVWKELDYGSMTEAEKQMLVSEVNLLRELKHPNIVRYYDRIIDRTNTTLYIVMEYCEGGDLASVITKGTKERQYLDEEFVLRVMTQLTLALKECHRRSDGGHTVLHRDLKPANVFLDGKQNVKLGDFGLARILNHDTSFAKTFVGTPYYMSPEQMNRMSYNEKSDIWSLGCLLYELCALMPPFTAFSQKELAGKIREGKFRRIPYRYSDELNEIITRMLNLKDYHRPSVEEILENPLIADLVADEQRRNLERRGRQLGEPEKSQDSSPVLSELKLKEIQLQERERALKAREERLEQKEQELCVRERLAEDKLARAENLLKNYSLLKERKFLSLASNPELLNLPSSVIKKKVHFSGESKENIMRSENSESQLTSKSKCKDLKKRLHAAQLRAQALSDIEKNYQLKSRQILGMR
 | binds | endogenous NEK2 (enzyme, UniProt P51955 1-445) MPSRAEDYEVLYTIGTGSYGRCQKIRRKSDGKILVWKELDYGSMTEAEKQMLVSEVNLLRELKHPNIVRYYDRIIDRTNTTLYIVMEYCEGGDLASVITKGTKERQYLDEEFVLRVMTQLTLALKECHRRSDGGHTVLHRDLKPANVFLDGKQNVKLGDFGLARILNHDTSFAKTFVGTPYYMSPEQMNRMSYNEKSDIWSLGCLLYELCALMPPFTAFSQKELAGKIREGKFRRIPYRYSDELNEIITRMLNLKDYHRPSVEEILENPLIADLVADEQRRNLERRGRQLGEPEKSQDSSPVLSELKLKEIQLQERERALKAREERLEQKEQELCVRERLAEDKLARAENLLKNYSLLKERKFLSLASNPELLNLPSSVIKKKVHFSGESKENIMRSENSESQLTSKSKCKDLKKRLHAAQLRAQALSDIEKNYQLKSRQILGMR
